Common to all, as to test: co-IP
The target in experiment [1] is Strep-HA-tagged SARS-CoV-2 NSP13 (SARS-CoV-2) (UniProt P0DTD1).
Experiment [2] has as its target Strep-HA-tagged SARS-CoV-2 NSP14 (SARS-CoV-2) (UniProt P0DTD1).
Experiment [3] concerns the target Strep-HA-tagged DDX39B (human) (UniProt Q13838).

This passage reports binding results from paper PMC8552907.

Results are given in words; binding and its absence hold for the method and conditions named. In cells and extracts the contact can be indirect. Some binding calls cover weakened binding; strength is not graded here.

Take “V5-tagged DDX39B (from UniProt Q13838 1-428) (enzyme)”: the binding entry in experiment [1] and in experiment [2] was “binds” each time. For the substance “V5-tagged SARS-CoV-2 NSP5 (from UniProt P0DTD1 3264-3569)”, the binding result in experiment [3] was “binds”. Same read-out and setting: the same measure for “V5-tagged SARS-CoV-2 NSP6 (from UniProt P0DTD1 3570-3859)”: “binds”; for “V5-tagged SARS-CoV-2 NSP13 (from UniProt P0DTD1 5325-5925)”: “binds”. Same read-out and setting: the same measure for “V5-tagged SARS-CoV-2 NSP14 (from UniProt P0DTD1)”: “binds”.
